Results are given in words; binding and its absence hold for the method and conditions named. In cells and extracts the contact can be indirect. Some entries that bind do so weakly or less than the wild type. Tags and fused reporters may be left off the sequences shown.
What was measured:
Assay in all cases: co-IP; 293T cells co-transfected with Myc-Mib2 and a tagged IKK subunit; lysis in 50 mM Tris-HCl pH 7.4, 150 mM NaCl, 1% Triton X-100; immunoprecipitation with Flag or HA antibody-conjugated beads at 4 °C for 2 h; Myc-Mib2 detected by Western blot
HA-tagged IKKβ = target: T1, HA-tagged IKKβ (UniProt O88351)
T1 sequence: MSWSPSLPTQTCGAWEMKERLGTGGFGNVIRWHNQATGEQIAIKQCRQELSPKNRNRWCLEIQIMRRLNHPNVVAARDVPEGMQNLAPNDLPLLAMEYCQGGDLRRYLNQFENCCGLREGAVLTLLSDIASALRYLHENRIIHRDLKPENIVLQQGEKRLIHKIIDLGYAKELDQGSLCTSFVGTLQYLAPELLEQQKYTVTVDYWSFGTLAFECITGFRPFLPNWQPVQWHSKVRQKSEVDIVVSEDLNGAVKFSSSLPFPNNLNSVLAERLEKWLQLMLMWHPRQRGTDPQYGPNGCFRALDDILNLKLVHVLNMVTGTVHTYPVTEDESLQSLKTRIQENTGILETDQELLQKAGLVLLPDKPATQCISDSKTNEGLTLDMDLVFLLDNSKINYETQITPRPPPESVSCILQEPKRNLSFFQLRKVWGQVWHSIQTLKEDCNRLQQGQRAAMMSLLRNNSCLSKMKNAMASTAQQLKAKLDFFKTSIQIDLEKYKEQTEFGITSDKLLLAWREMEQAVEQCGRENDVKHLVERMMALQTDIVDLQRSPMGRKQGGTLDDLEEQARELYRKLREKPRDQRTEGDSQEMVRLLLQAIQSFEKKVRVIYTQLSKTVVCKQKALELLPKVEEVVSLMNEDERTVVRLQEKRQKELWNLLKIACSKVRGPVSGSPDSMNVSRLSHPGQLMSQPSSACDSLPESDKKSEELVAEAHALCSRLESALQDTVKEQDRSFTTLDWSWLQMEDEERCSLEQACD

Sequences of proteins named here, by UniProt entry; tags and fusion partners are left off.
UniProt O88522: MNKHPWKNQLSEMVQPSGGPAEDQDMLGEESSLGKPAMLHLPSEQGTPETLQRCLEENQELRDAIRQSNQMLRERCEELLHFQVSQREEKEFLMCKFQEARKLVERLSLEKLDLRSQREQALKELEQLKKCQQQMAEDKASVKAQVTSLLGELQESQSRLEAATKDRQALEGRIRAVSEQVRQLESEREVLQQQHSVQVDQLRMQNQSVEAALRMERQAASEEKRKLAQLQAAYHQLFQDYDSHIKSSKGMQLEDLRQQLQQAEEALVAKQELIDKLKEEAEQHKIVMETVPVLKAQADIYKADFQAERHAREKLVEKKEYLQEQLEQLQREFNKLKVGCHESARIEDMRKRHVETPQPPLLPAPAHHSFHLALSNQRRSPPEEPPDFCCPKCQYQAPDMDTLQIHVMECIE

Flag-tagged IKKα = target: T2, Flag-tagged IKKα (UniProt Q60680)
T2 sequence: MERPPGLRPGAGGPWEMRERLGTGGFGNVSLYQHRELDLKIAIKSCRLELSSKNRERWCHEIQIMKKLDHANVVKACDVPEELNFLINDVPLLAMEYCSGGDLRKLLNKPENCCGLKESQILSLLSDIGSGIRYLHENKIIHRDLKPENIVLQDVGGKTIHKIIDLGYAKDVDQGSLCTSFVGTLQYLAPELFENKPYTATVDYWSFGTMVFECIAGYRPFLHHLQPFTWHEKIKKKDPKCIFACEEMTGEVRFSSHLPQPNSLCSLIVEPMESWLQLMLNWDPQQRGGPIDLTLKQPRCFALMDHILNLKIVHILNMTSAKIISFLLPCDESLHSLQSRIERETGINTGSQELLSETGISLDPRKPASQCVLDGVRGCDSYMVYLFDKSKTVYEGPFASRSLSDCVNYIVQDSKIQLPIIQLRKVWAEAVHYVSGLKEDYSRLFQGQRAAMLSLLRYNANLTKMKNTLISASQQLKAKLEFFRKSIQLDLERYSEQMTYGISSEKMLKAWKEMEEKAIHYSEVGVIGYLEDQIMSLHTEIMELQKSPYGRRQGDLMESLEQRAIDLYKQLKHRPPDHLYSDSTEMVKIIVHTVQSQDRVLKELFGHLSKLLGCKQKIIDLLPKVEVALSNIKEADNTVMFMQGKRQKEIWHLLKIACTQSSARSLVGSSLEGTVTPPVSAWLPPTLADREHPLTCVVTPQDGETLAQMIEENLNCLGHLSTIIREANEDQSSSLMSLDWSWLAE

Flag-tagged IKKγ = Flag-tagged IKKγ (UniProt O88522)

Measured: binding

B1: Myc-tagged Mib2 (Mind bomb-2) (enzyme, UniProt Q8R516 1-973)
chain: MDLDPHAGVQVGMRVVRGMDWKWGQQDGGEGGVGTVVELGRHGSPSTPDRTVVVQWDQGTRTNYRAGYQGAHDLLLYDNAQIGIRHPNIICDCCKKHGLRGMRWKCRVCFDYDLCTQCYMHNKHDLTHAFERYETSHSRPVTLSPRQGLPRIPLRGIFQGAKVVRGPDWEWGSQDGGEGKTGRVVDIRGWDVETGRSVASVTWADGTTNVYRVGHKGKVDLRCVGEAAGGFYYKEHLPKLGKPAELQRRVSADGQPFQRGDKVKCLLDTDVLRDMQEGHGGWNPRMAEFIGQMGTVHRITDRGDVRVQFNHETRWTFHPGALTKHNSFWVGDVVRVIGDLDTVKRLQAGHGEWTDDMAPALGRVGKVVKVFGDGNLRVAVGGQRWTFSPSCLVAYRPEEDANLDVAERARENKSAASVSVAGSLSVALDKLRTQKSDPEHPGRLVVEAALGNVARALDLLRRHPEQASYHPALVVDTKNQGRTALQVAAYLGQVELVRLLLQARASMDLPDDEGNTVLHYTAMGNQPEATRVLLSAGCAVDARNGTRSTALHVAVQRGFLEVVKILCERGCDVNLPDAHADTPLHSAISAGAGASSIVEVLTEVPGIDVTATNSQGFTLLHHASLKGHVLAVRKILARARQLVDAKKEDGFTALHLAALNNHREVAQVLIREGRCDVNVRNRKLQSPLHLAVQQAHLGLVPLLVDAGCSVNTEDEEGDTALHVALQRHQLLPLVADRAGGDPGPLQLLSRLQASGLPGCTELTVGAAVACFLALEGADVSYANHRGRSPLDLATEGRVLKALQGCAQRFRERQAGGGGGVPPGPRHVLSTPNTVTNLHVSGTAGPEAAECLVCSELALLILFSPCQHRTVCEECARRMKKCIRCQVVISKKLRPDGSEVVNAIQVPGPPRQLVEELQSRYRQMEERITCPICIDSHIRLVFQCGHGACAPCGAALNACPICRQPIRDRIQIFV
binds: all assays above

From article PMC7220279
